Assay results: the supplement of paper PMC12889115
This is one part of the list. These are raw signals, not scaled to a control.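 Primary screen: polymyxin B was added at a level permeabilizing Salmonella outer membranes while sparing inner membranes. DMSO wells, both with and without polymyxin B, established maximum growth. Plate-to-plate variation meant each plate was ranked on its own, and the lowest-OD600 compounds were selected as hits.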

Test system: Salmonella enterica serovar Typhimurium SL1344
Experiment: bacterial growth OD600 after 18 h with compound and polymyxin B; higher = more bacterial growth (less inhibition)
Conditions: 50 µM, Mueller-Hinton broth

| SMILES | bacterial growth OD600 (polymyxin B 0.75 µg/mL) | bacterial growth OD600 (polymyxin B 1 µg/mL) |
| --- | --- | --- |
| COCCCN1C(=O)CC(CC(=O)N2CCCC(C(=O)CC(C)C)C2)(c2ccccc2OC)C1=O (stereo not given) | 0.622 | – |
| Cc1csc(CNc2nncc(-c3ccc(F)cc3)n2)n1 | – | 0.931 |
| CCOC(=O)C1(Cc2cccc(OC)c2)CCN(Cc2nccn2CC)CC1 | – | 0.972 |
| COc1cccc(CN2CC[C@@H](N3CCC(O)CC3)[C@H](O)C2)c1 | 0.889 | – |
| O=C(c1ccccn1)N1CCC2(CCCN(Cc3ccc(F)cc3)C2=O)C1 (stereo not given) | – | 0.898 |
| COc1ccc(C(=O)N2CCCN(C=O)CC2)cc1OC1CCN(C(C)C)CC1 | – | 1.08 |
| CSc1nccc(-c2cc(Cl)c3c(c2)CC(CNC(=O)C(c2cccnc2)N2CCCC2)O3)n1 (stereo not given) | 0.876 | – |
| O=C(CCC1(Cc2ccc3ccccc3c2)CCC(=O)N1)NCc1cccc(Cl)c1 (stereo not given) | 0.048 | – |
| CC(=O)NC(C(=O)N1CCc2c(cnc(C)c2CNC(=O)c2ccsc2)C1)C(C)C (stereo not given) | 0.815 | – |
| CN(C(=O)c1ccco1)C(Cc1ccc(F)cc1F)C1CCN(Cc2cccc3ncccc23)CC1 (stereo not given) | 0.714 | – |
| O=C(CCc1ccco1)N1CCC(C2CCN(Cc3cccnc3)CC2)C1 (stereo not given) | 0.865 | – |
| COc1cccc(CCC2CCCN(C(=O)CSC)C2)c1 (stereo not given) | 0.58 | – |
| CC1=C(C(=O)N2CCOC(CCCc3ccccc3)C2)OCCO1 (stereo not given) | 0.777 | – |
| COc1ccc([C@@H](C)NC2CCN(c3nc(C)c4ccc(OC)cc4n3)CC2)cc1 | 1.02 | – |
| O=C(NCCc1nccc(-c2ccccc2)n1)C1CCC(=O)N(CCN2CCOCC2)C1 (stereo not given) | – | 0.869 |
| OCC1(Cc2cccc(Cl)c2)CCCN(C2Cc3ccccc3C2)C1 (stereo not given) | – | 1.14 |
| O=C(CN1CCCCC1=O)NC1CCCN(C2CCCCCC2)C1 (stereo not given) | – | 0.881 |
| O=C(CC1(c2cccc(F)c2)CC(=O)N(Cc2cccnc2)C1=O)N1CCN(C2CCCC2)CC1 (stereo not given) | 0.775 | – |
| O=C(c1cn(CCCc2ccccc2)nn1)N1CCCCC1c1nccs1 (stereo not given) | – | 0.625 |
| Cc1ccc2c(C)nc(N3CCCC(C(=O)NCCc4ccccc4)C3)nc2c1 (stereo not given) | 0.802 | – |
| O=C(C1CCOCC1)N1CCCC(CCc2ccc(F)c(F)c2)C1 (stereo not given) | 0.76 | – |
| COC(=O)[C@@H]1CCCN1C(=O)Cc1ccc(N2CCC(NCCCn3ccnc3)CC2)cc1 | 0.941 | – |
| CN(Cc1ccccc1)c1ncc2c(n1)CC(C)(C)CC2NCc1cnn(C)c1 (stereo not given) | – | 0.913 |
| COC(=O)c1ccc(CNC(C)c2cnc(-c3ccncc3)nc2C)cc1 (stereo not given) | – | 0.707 |
| O=C(CCC1(Cc2ccc3ccccc3c2)CCC(=O)N1)NC(C1CC1)C1CC1 (stereo not given) | 0.811 | – |
| Cc1nn(C)cc1CNC(=O)C1CCCN(C2CCN(Cc3ccccc3)CC2)C1 (stereo not given) | 0.975 | – |
| CCn1ncc(CNC2CC(=O)N(Cc3cccc4ccccc34)C2)c1C (stereo not given) | – | 0.659 |
| Cc1cc(C)n(CC(=O)NCCN2Cc3ccccc3OC(c3ccccc3F)C2)n1 (stereo not given) | 0.757 | – |
| COc1cc2nc(N(C)C)c(CNCc3ccc(Cl)cc3)cc2c(OC)c1OC | 0.77 | – |
| O=C1N(Cc2cccc(F)c2F)CCCC1(O)CN1CCSCC1 (stereo not given) | – | 0.903 |

Some of the entries so far, as comma-separated lines.
SMILES,bacterial growth OD600 (polymyxin B 0.75 µg/mL),bacterial growth OD600 (polymyxin B 1 µg/mL)
Cc1csc(CNc2nncc(-c3ccc(F)cc3)n2)n1,–,0.931
CCOC(=O)C1(Cc2cccc(OC)c2)CCN(Cc2nccn2CC)CC1,–,0.972
